Reference: paper PMC11589570, “Critical assessment of LC3/GABARAP ligands used for degrader development and ligandability of LC3/GABARAP binding pockets” (Nature Communications, 2024)
Values joined by “and” are separate entries in the source; they are usually repeats but may differ in a detail not shown here. Identical values can stand only once. This continues a long series; more values of the same kind are listed elsewhere.

System: U2OS cells
Assay: Cell growth assay (IncuCyte confluence over 72 h)
Assay type: cell-based
Set-up: key: % of well area covered by cells (confluence)
Settings: listed as AN1
How it was run: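 U2OS cells were grown in DMEM with 10% FBS for 24 h before treatment. Confluence was then tracked by IncuCyte phase imaging over 72 h and expressed as % of well area covered by cells. Each point is the average of three wells.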

## O=C1Nc2ccc(Br)cc2C1=Cc1cc(O)c(O)c(Br)c1 [compound 1]
500 nM, time 0 h
  U2OS cell growth: 27.347 and 27.5739 and 28.04
500 nM, time 2 h
  U2OS cell growth: 28.4326 and 29.582 and 32.162
500 nM, time 4 h
  U2OS cell growth: 29.2474 and 26.4948 and 33.3312
500 nM, time 6 h
  U2OS cell growth: 32.7874 and 38.6315 and 39.1449
500 nM, time 8 h
  U2OS cell growth: 33.7929 and 39.8343 and 34.382
500 nM, time 20 h
  U2OS cell growth: 48.92 and 50.9157 and 50.1778
500 nM, time 22 h
  U2OS cell growth: 55.9888 and 55.3484 and 62.0555
500 nM, time 24 h
  U2OS cell growth: 47.2227 and 55.2266 and 54.3757
500 nM, time 26 h
  U2OS cell growth: 49.5272 and 54.6198 and 58.5467
500 nM, time 28 h
  U2OS cell growth: 56.9543 and 63.078 and 61.4608
500 nM, time 30 h
  U2OS cell growth: 58.5292 and 63.693 and 59.3117
500 nM, time 32 h
  U2OS cell growth: 62.4411 and 66.551 and 61.6048
500 nM, time 34 h
  U2OS cell growth: 60.479 and 64.1848 and 62.5155
500 nM, time 36 h
  U2OS cell growth: 65.4275 and 71.4226 and 66.8445
500 nM, time 38 h
  U2OS cell growth: 70.8575 and 75.2609 and 72.5946
500 nM, time 40 h
  U2OS cell growth: 81.889 and 81.0153 and 84.0964
500 nM, time 42 h
  U2OS cell growth: 77.7551 and 81.5465 and 81.047
500 nM, time 44 h
  U2OS cell growth: 78.7402 and 81.7938 and 75.3931
500 nM, time 46 h
  U2OS cell growth: 77.525 and 72.7035 and 84.9484
500 nM, time 48 h
  U2OS cell growth: 83.6641 and 86.7101 and 87.4273
500 nM, time 50 h
  U2OS cell growth: 78.6715 and 84.6189 and 79.8616
500 nM, time 52 h
  U2OS cell growth: 87.7348 and 89.5251 and 90.4969
500 nM, time 58 h
  U2OS cell growth: 89.3873 and 92.5884 and 92.5474
500 nM, time 64 h
  U2OS cell growth: 94.6631 and 97.2152 and 93.7109
500 nM, time 66 h
  U2OS cell growth: 95.9856 and 97.7723 and 98.2119
500 nM, time 72 h
  U2OS cell growth: 98.5511 and 99.0536 and 99.2748
1 uM, 20 h
  U2OS cell growth: 54.2257 and 53.0051 and 59.2876
1 uM, 22 h
  U2OS cell growth: 58.8643 and 58.4763 and 65.8667
1 uM, 24 h
  U2OS cell growth: 57.0907 and 59.6608 and 67.9515
1 uM, 26 h
  U2OS cell growth: 64.2023 and 64.2101 and 65.5851
1 uM, 28 h
  U2OS cell growth: 65.419 and 63.162 and 74.8274
1 uM, 30 h
  U2OS cell growth: 60.369 and 68.737 and 77.0852
1 uM, 32 h
  U2OS cell growth: 67.7049 and 71.2518 and 77.7088
1 uM, 34 h
  U2OS cell growth: 71.8513 and 71.0617 and 75.8812
1 uM, 36 h
  U2OS cell growth: 72.6487 and 73.5901 and 80.994
1 uM, 38 h
  U2OS cell growth: 81.9334 and 80.4249 and 85.2844
1 uM, 40 h
  U2OS cell growth: 81.4489 and 83.429 and 88.396
1 uM, 42 h
  U2OS cell growth: 85.3648 and 85.8336 and 90.2731
1 uM, 44 h
  U2OS cell growth: 82.2352 and 84.7766 and 90.447
1 uM, 46 h
  U2OS cell growth: 81.1405 and 82.5387 and 84.0104
1 uM, 48 h
  U2OS cell growth: 86.4709 and 90.617 and 92.863
1 uM, 50 h
  U2OS cell growth: 88.9665 and 89.6182 and 90.7793
1 uM, 52 h
  U2OS cell growth: 90.8118 and 91.2949 and 96.0267
1 uM, 54 h
  U2OS cell growth: 87.4646 and 89.9239 and 89.2432
1 uM, 56 h
  U2OS cell growth: 93.2155 and 93.7559 and 96.3918
1 uM, 58 h
  U2OS cell growth: 93.1927 and 93.4527 and 95.8635
1 uM, 60 h
  U2OS cell growth: 96.1131 and 97.2562 and 98.39
1 uM, 62 h
  U2OS cell growth: 96.0348 and 96.9166 and 98.4119
1 uM, 64 h
  U2OS cell growth: 96.0537 and 96.436 and 98.3804
1 uM, 66 h
  U2OS cell growth: 96.9643 and 98.4365 and 98.9885
1 uM, 70 h
  U2OS cell growth: 96.2072 and 98.5971 and 99.4122
1 uM, 72 h
  U2OS cell growth: 98.3341 and 99.3567 and 99.7552
1 uM, time 0 h
  U2OS cell growth: 32.4763 and 36.5565 and 38.7861
1 uM, time 2 h
  U2OS cell growth: 36.9222 and 41.1625 and 40.9365
1 uM, time 4 h
  U2OS cell growth: 33.9856 and 35.2243 and 36.5124
1 uM, time 6 h
  U2OS cell growth: 43.6094 and 41.4578 and 47.4146
1 uM, time 8 h
  U2OS cell growth: 40.8463 and 46.4609 and 50.7157
1 uM, time 20 h
  U2OS cell growth: 64.3933 and 61.6371
1 uM, time 24 h
  U2OS cell growth: 54.8961 and 69.4029 and 64.2675
1 uM, time 26 h
  U2OS cell growth: 65.564 and 69.5964 and 65.815
1 uM, time 28 h
  U2OS cell growth: 65.6118 and 75.7091 and 71.4749
1 uM, time 30 h
  U2OS cell growth: 64.1631 and 77.5361 and 72.8869
1 uM, time 32 h
  U2OS cell growth: 68.1667 and 79.9558 and 76.9482
1 uM, time 34 h
  U2OS cell growth: 64.999 and 72.2296 and 72.6737
1 uM, time 36 h
  U2OS cell growth: 74.4706 and 82.7949 and 79.0155
1 uM, time 38 h
  U2OS cell growth: 74.7751 and 86.8697 and 86.0581
1 uM, time 40 h
  U2OS cell growth: 79.5064 and 89.8162 and 85.2913
1 uM, time 42 h
  U2OS cell growth: 80.0219 and 91.3705 and 88.4688
1 uM, time 44 h
  U2OS cell growth: 81.2116 and 91.8221 and 90.7123
1 uM, time 46 h
  U2OS cell growth: 80.1881 and 86.3683 and 88.1535
1 uM, time 48 h
  U2OS cell growth: 88.6226 and 95.2861 and 92.1604
1 uM, time 50 h
  U2OS cell growth: 84.3172 and 90.9909 and 85.0324
1 uM, time 52 h
  U2OS cell growth: 89.1502 and 97.4295 and 94.744
1 uM, time 54 h
  U2OS cell growth: 87.8552 and 91.4949 and 91.613
1 uM, time 56 h
  U2OS cell growth: 91.9005 and 98.604 and 95.309
1 uM, time 60 h
  U2OS cell growth: 95.5524 and 99.6096 and 97.8118
1 uM, time 62 h
  U2OS cell growth: 95.4867 and 99.6371 and 98.4313
1 uM, time 64 h
  U2OS cell growth: 96.1309 and 99.5949 and 98.2894
1 uM, time 66 h
  U2OS cell growth: 96.3913 and 99.6502 and 98.9666
1 uM, time 68 h
  U2OS cell growth: 96.8805 and 99.7291 and 99.369
1 uM, time 70 h
  U2OS cell growth: 98.9349 and 99.4744 and 98.3444
1 uM, time 72 h
  U2OS cell growth: 98.6602 and 99.9562 and 99.8308
